Earlier results in patent publication US20200113853A1, “GAMMA-HYDROXYBUTYRATE COMPOSITIONS AND THEIR USE FOR THE TREATMENT OF DISORDERS” (Jazz Pharmaceuticals Ireland Limited, priority 2017, published 2020).
The name of at least one read-out is uncertain.

Conditions: generally considered; Yu et al.; cited from earlier work

SMILES: O=C([O-])CCCO.[Na+] [sodium oxybate, sodium gamma-hydroxybutyrate]
- permeability class: high permeability
